Results published in patent US20240254508A1, “Multi-Genome Editor Construct and Uses Thereof” (Colossal Biosciences Inc., priority 2023, published 2024).
At least one compound was matched to its structure with a doubt left.

Legend:
[1] = system: Super Editor incorporated HEK293T cells; assay: Editing enzyme induction in Super Editor incorporated HEK293T cells (fluorescent imaging / FACS); assay type: cell-based; settings: 1/5/10 μg/mL doxycycline, 30/120/300 μg/mL cumate, 10/40/100 μM TMP, 0.25/1.25/6.25 μM Shield 1, 24-72 hours after treatment
Method: FIGS. 3A-3D show fluorescence-activated cell sorting (FACS) of individual editor induction by super editor integrated HEK293T cells. FACS analysis was done for doxycycline induced Cas9 expression (FIG. 3A), cumate induced ABE expression (FIG. 3B), trimethoprim induced CBE expression (FIG. 3C), and shield 1 induced CGBE expression (FIG. 3D). Cells were fixed 72 hours after treatment for FACS quantification. Bar graphs plotting the induction ratios of each dose curve are provided for each different genome editor enzyme induction (FIGS. 3A-3D).
Incorporation of Super Editor in HEK293T cells: 300,000 HEK293T cells were transfected by 4 μg of Super Editor plasmid and 3 μg PiggyBac transposase plasmid using 10 μL of Lipofectamine 2000 according to the manufacturer's protocol in a 6-well plate format. 2 μg/mL doxycycline was supplemented to the cells 48 hours in advance. The transfected cells were enriched twice by Fluorescence-activated cell sorting (FACS) gated with doxycycline induced TagRFP657 (far red) fluorescent signals 1 week and 3 weeks after transfection. […]
Doxycycline induced Cas9, reported by TagRFP657 (far red); cumate induced ABE, reported by TagBFP (blue); trimethoprim induced CBE reported by, eGFP (green); Shield 1 induced CGBE, reported by mCherry (red). Cells were analyzed by fluorescent imaging or FACS 24-72 hours after treatment. […]

[2] = system: HEK293T cells; assay: Transient induction of single module plasmids in HEK293T cells; assay type: cell-based; settings: 2 μg/ml doxycycline, 120 μg/ml cumate, 10 μM TMP, 6.25 μM shield 1
Method: HEK293T cells were transfected with the single module plasmids comprising the corresponding regulatory element. The HEK293T cells were treated with the corresponding inducers to generate expression of the genome editing enzyme along with the fluorescent marker accompanying each genome editing enzyme. HEK293T cells were transfected with a doxycycline inducible Cas9 editing enzyme, a cumate inducible ABE, a trimethoprim (TMP) inducible CBE, and a shield 1 inducible CGBE.

C[C@H]1c2cccc(O)c2C(=O)C2=C(O)[C@]3(O)C(=O)C(C(N)=O)=C(O)[C@@H](N(C)C)[C@@H]3[C@@H](O)[C@@H]21 [doxycycline]
induction of editing enzyme expression, reported by fluorescent protein [1]: induced Cas9
expression of genome editing enzyme and fluorescent marker after inducer treatment [2]: Cas9 and RFP were expressed
